Assay results as given in the supplement of paper PMC12067093, “Discovery and optimisation of a covalent ligand for TRIM25 and its application to targeted protein ubiquitination” (Chemical Science, 2025).
The other results are listed elsewhere or left out.

Chains of the proteins cited; added tags and fusions are not shown. Lines headed by an entry give the natural chain unless they say otherwise; changes in a name come on top.
UniProt Q14643, whole entry, looked up: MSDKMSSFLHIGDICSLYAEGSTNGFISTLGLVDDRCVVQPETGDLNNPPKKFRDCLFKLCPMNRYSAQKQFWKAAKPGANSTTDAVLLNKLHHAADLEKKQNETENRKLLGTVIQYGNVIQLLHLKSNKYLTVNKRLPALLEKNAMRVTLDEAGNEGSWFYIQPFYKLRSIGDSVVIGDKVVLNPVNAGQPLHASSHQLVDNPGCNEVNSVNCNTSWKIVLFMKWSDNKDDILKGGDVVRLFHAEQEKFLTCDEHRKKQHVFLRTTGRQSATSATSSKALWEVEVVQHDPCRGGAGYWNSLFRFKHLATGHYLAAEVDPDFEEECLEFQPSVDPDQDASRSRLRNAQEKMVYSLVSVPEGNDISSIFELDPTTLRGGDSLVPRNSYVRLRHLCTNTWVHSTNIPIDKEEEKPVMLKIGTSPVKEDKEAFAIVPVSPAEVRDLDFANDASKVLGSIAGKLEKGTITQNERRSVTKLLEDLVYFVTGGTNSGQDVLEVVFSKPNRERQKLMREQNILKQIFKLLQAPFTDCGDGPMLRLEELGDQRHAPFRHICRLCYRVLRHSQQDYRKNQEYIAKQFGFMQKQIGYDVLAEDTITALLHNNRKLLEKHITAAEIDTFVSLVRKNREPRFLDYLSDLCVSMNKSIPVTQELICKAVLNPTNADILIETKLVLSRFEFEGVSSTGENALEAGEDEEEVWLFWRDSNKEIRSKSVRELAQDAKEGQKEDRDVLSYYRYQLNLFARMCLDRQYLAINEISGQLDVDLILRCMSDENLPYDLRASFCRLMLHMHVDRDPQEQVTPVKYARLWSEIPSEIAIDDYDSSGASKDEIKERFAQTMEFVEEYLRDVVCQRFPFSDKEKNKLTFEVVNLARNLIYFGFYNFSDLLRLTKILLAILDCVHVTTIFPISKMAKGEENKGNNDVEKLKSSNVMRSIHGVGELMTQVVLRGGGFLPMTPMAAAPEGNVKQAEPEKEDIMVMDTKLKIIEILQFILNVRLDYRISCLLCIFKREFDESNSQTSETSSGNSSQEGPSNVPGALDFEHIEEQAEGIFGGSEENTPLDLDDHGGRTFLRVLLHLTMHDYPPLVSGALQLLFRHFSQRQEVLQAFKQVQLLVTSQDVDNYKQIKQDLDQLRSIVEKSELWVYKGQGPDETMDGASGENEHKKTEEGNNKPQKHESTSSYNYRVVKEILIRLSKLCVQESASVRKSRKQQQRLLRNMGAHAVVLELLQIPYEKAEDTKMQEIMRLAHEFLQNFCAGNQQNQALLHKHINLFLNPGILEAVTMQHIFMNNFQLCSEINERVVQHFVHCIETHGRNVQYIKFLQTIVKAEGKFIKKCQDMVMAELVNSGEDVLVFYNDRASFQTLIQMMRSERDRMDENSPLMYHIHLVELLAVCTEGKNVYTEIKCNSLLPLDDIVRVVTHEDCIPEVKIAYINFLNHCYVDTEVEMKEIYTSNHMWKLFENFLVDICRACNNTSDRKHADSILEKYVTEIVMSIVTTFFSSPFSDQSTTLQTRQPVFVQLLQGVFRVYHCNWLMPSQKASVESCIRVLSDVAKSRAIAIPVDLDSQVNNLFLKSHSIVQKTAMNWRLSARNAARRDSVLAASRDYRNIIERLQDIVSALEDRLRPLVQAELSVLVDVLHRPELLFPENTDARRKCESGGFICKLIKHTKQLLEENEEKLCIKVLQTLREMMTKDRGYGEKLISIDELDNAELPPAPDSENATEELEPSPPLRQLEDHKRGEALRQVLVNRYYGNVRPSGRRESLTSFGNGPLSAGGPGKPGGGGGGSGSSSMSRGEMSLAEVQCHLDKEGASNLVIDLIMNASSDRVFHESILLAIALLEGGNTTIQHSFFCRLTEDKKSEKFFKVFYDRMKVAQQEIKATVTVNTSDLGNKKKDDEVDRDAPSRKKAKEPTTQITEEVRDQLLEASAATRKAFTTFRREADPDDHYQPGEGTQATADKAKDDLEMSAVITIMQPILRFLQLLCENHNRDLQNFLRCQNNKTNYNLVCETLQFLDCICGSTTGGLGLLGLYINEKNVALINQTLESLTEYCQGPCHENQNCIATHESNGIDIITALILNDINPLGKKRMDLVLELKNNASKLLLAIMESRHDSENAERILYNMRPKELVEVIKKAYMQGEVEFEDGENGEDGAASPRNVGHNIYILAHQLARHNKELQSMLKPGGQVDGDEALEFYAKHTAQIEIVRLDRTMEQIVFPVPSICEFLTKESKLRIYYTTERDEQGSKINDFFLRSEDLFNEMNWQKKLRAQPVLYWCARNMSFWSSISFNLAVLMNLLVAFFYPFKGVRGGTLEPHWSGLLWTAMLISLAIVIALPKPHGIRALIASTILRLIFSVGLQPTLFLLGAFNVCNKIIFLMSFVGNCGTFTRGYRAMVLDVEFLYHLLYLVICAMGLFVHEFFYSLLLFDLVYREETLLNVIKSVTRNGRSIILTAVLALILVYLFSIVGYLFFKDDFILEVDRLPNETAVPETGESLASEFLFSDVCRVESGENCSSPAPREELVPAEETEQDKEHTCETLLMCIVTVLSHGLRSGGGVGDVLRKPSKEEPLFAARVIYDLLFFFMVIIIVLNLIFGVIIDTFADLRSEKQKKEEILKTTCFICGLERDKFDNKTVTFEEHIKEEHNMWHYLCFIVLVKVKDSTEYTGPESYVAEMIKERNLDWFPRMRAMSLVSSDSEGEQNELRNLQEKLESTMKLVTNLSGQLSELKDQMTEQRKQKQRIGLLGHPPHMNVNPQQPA
UniProt P26440: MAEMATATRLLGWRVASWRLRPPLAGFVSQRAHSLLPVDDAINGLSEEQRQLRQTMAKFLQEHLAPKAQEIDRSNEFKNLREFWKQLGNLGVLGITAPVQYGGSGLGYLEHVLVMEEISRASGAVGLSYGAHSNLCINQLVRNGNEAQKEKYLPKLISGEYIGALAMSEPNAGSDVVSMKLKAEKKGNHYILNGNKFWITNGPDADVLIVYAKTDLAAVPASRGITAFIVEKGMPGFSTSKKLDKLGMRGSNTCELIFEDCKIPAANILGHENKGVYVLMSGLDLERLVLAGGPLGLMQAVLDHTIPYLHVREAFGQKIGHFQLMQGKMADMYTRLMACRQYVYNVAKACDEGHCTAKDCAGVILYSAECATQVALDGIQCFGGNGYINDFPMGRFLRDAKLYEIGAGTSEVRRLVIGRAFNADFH
UniProt Q15046, whole entry, looked up: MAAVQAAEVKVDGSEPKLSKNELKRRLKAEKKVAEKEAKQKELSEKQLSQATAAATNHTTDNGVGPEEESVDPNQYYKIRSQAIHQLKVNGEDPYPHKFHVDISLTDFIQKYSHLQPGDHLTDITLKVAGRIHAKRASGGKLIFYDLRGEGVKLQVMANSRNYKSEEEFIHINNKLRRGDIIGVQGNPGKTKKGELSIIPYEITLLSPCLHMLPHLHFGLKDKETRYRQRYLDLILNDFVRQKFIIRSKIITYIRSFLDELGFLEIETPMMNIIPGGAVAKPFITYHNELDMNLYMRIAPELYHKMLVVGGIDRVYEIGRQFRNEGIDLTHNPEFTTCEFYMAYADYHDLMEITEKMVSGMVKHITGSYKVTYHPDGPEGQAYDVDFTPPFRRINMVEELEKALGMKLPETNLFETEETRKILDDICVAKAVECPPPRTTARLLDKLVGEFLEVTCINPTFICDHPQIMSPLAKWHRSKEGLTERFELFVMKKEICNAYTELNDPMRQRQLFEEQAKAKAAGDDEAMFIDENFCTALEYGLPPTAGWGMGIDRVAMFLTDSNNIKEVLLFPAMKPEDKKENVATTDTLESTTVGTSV
UniProt Q9NS87: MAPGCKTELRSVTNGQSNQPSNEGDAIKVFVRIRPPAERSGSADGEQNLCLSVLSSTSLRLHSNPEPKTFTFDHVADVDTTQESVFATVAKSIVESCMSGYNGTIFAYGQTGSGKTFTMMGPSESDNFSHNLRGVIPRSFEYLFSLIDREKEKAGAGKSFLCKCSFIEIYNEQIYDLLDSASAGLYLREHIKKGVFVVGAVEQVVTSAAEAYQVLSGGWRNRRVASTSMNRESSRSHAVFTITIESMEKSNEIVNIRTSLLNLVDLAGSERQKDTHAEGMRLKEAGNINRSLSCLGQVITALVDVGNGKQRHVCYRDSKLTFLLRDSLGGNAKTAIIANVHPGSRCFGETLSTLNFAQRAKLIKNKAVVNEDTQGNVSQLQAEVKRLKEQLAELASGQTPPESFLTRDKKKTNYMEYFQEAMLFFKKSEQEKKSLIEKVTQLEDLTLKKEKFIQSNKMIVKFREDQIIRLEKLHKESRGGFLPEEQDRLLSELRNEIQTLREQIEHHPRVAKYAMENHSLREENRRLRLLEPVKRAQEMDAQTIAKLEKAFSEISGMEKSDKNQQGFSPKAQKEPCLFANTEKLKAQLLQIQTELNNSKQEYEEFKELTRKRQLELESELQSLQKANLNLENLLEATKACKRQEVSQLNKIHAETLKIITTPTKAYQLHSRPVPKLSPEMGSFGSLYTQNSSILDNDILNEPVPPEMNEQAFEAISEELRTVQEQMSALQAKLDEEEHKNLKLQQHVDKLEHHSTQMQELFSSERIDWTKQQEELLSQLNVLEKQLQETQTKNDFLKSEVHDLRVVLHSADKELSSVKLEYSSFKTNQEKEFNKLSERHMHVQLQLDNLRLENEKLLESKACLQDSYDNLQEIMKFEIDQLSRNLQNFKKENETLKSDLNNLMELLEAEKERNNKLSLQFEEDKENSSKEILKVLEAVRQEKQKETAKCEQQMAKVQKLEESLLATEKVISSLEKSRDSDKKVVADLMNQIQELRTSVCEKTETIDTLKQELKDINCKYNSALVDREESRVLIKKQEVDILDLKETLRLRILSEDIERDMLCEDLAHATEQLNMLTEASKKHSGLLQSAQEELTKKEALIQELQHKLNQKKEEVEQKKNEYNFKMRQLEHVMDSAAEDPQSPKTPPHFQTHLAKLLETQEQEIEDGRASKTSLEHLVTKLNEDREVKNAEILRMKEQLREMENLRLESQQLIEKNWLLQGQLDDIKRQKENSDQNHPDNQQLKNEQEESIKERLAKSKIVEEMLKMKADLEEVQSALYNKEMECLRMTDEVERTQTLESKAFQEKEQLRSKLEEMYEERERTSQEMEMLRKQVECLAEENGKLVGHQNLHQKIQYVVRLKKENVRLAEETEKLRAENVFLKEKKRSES
UniProt Q8NHM5: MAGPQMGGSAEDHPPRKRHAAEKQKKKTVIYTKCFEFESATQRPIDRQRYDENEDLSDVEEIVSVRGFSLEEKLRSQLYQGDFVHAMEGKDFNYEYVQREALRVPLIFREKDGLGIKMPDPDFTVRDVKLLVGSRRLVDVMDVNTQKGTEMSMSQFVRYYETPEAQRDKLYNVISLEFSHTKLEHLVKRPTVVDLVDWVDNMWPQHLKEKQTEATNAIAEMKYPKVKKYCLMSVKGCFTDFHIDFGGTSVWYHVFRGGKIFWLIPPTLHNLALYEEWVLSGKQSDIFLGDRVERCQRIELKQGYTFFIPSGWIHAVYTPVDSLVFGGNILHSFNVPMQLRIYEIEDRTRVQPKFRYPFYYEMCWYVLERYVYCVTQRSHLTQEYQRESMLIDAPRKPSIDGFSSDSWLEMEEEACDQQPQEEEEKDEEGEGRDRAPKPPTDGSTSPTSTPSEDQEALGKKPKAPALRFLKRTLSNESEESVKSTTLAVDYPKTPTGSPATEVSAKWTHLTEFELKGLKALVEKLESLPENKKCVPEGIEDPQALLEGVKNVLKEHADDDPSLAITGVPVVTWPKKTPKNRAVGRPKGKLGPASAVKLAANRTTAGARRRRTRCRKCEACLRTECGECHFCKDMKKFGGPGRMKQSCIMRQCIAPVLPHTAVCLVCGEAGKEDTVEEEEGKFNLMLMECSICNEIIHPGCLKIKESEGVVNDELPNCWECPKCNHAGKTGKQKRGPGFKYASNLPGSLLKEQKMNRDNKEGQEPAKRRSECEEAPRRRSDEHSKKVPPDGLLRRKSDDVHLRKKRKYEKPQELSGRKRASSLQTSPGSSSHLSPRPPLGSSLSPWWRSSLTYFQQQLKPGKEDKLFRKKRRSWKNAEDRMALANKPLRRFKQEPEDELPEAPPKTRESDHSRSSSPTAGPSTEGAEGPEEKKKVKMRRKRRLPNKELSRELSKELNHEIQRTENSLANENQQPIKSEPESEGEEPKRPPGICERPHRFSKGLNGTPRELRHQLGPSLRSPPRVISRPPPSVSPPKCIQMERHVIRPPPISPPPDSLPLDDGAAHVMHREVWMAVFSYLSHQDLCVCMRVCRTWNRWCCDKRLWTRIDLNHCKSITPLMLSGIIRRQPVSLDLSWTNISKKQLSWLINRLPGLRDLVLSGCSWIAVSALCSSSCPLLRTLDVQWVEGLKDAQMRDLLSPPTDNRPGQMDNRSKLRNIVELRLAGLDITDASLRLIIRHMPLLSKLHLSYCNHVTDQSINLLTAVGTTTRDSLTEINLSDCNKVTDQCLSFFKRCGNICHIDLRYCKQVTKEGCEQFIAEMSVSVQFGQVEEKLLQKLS

Compound: Cc1cc(ccc1-c1ccccc1)C(=O)N1CCCN(CC1)C(=O)CCl [compound 10]
Experiment: probe-labelled cysteine peptide fold change vs DMSO (competition) (log2 fold change); higher = less target engagement (more negative = stronger competition)
Details: THP-1, incubation time: 4 h
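Note: competitive profiling in live THP-1 cells: cysteine peptides tagged with an iodoacetamide desthiobiotin (IA-DTB) probe, intensity after compound treatment relative to DMSO-treated cells.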

## ITPR1_Q14643_2536_EHTCETLLMCIVTVLSHGLR (UniProt Q14643)
10 µM
  probe-labelled cysteine peptide fold change: 0.0218
50 µM
  probe-labelled cysteine peptide fold change: 0.145

## KEAP1_Q14145_273_CHSLTPNFLQMQLQK (UniProt Q14145)
10 µM
  probe-labelled cysteine peptide fold change: -0.0118
50 µM
  probe-labelled cysteine peptide fold change: -0.0914

## KAT6B_Q8WYB5_837_GCHLVGYFSK (UniProt Q8WYB5)
10 µM
  probe-labelled cysteine peptide fold change: -0.127
50 µM
  probe-labelled cysteine peptide fold change: 0.151

## JMJD4_Q9H9V9_188_DWHLCR (UniProt Q9H9V9)
10 µM
  probe-labelled cysteine peptide fold change: 0.0632
50 µM
  probe-labelled cysteine peptide fold change: 0.0929

## KIF20B_Q96Q89-3_672_VETEEATACLELK (UniProt Q96Q89)
10 µM
  probe-labelled cysteine peptide fold change: -0.171
50 µM
  probe-labelled cysteine peptide fold change: -0.134

## ITPR1_Q14643_292_ALWEVEVVQHDPCR (UniProt Q14643)
10 µM
  probe-labelled cysteine peptide fold change: -0.0376
50 µM
  probe-labelled cysteine peptide fold change: 0.104

## KDM2A_Q9Y2K7_477_CVPTGIEDEDALIADVK (UniProt Q9Y2K7)
10 µM
  probe-labelled cysteine peptide fold change: 0.103
50 µM
  probe-labelled cysteine peptide fold change: -0.0878

## KDM5A_P29375_1409_SCSQGSSTPR (UniProt P29375)
10 µM
  probe-labelled cysteine peptide fold change: 0.0454
50 µM
  probe-labelled cysteine peptide fold change: -0.464

## ITPR1_Q14643_1805_GEMSLAEVQCHLDK (UniProt Q14643)
10 µM
  probe-labelled cysteine peptide fold change: 0.104
50 µM
  probe-labelled cysteine peptide fold change: 0.288

## KIAA0753_Q2KHM9_745_QLDDFLEDCASELWAVTHAK (UniProt Q2KHM9)
10 µM
  probe-labelled cysteine peptide fold change: -0.172
50 µM
  probe-labelled cysteine peptide fold change: -0.0839

## KAT8_Q9H7Z6_63_GEPEVTVEIGETYLCR (UniProt Q9H7Z6)
10 µM
  probe-labelled cysteine peptide fold change: 0.142
50 µM
  probe-labelled cysteine peptide fold change: 0.0799

## IVD_P26440_136_ASGAVGLSYGAHSNLCINQLVR (UniProt P26440)
10 µM
  probe-labelled cysteine peptide fold change: -0.0146
50 µM
  probe-labelled cysteine peptide fold change: -0.051

## KEAP1_Q14145_368_SGLAGCVVGGLLYAVGGR (UniProt Q14145)
10 µM
  probe-labelled cysteine peptide fold change: 0.148
50 µM
  probe-labelled cysteine peptide fold change: 0.035

## ITPR1_Q14643_1531_VYHCNWLMPSQK (UniProt Q14643)
10 µM
  probe-labelled cysteine peptide fold change: -0.158
50 µM
  probe-labelled cysteine peptide fold change: 0.328

## KDM3B_Q7LBC6_937_FKEQEQDDSTVACR (UniProt Q7LBC6)
10 µM
  probe-labelled cysteine peptide fold change: -0.224
50 µM
  probe-labelled cysteine peptide fold change: -0.34

## KDM4B_O94953_13_GSEDHGAQNPSCK (UniProt O94953)
10 µM
  probe-labelled cysteine peptide fold change: -0.0382
50 µM
  probe-labelled cysteine peptide fold change: -0.113

## KANK2_Q63ZY3_389_SQEVVETMCPVPAAATSNVHMVK (UniProt Q63ZY3)
10 µM
  probe-labelled cysteine peptide fold change: -0.23
50 µM
  probe-labelled cysteine peptide fold change: -0.183

## IVD_P26440_254+261_GSNTCELIFEDCK (UniProt P26440)
10 µM
  probe-labelled cysteine peptide fold change: 0.136
50 µM
  probe-labelled cysteine peptide fold change: 0.318

## KARS_Q15046_434_AVECPPPR (UniProt Q15046)
10 µM
  probe-labelled cysteine peptide fold change: -0.237
50 µM
  probe-labelled cysteine peptide fold change: 0.0645

## KIF15_Q9NS87_999_TSVCEK (UniProt Q9NS87)
10 µM
  probe-labelled cysteine peptide fold change: -0.0462
50 µM
  probe-labelled cysteine peptide fold change: -0.141

## KIF21B_O75037_203_LIHSQEELIQCLK (UniProt O75037)
10 µM
  probe-labelled cysteine peptide fold change: 0.168
50 µM
  probe-labelled cysteine peptide fold change: 0.0784

## ITPRIP_Q8IWB1_268_LGEDMLCLLHGR (UniProt Q8IWB1)
10 µM
  probe-labelled cysteine peptide fold change: -0.0254
50 µM
  probe-labelled cysteine peptide fold change: -0.153

## ITPR1_Q14643_2542_EHTCETLLMCIVTVLSHGLR (UniProt Q14643)
10 µM
  probe-labelled cysteine peptide fold change: 0.0764
50 µM
  probe-labelled cysteine peptide fold change: 0.00799

## KDM3B_Q7LBC6_937_EQEQDDSTVACR (UniProt Q7LBC6)
10 µM
  probe-labelled cysteine peptide fold change: -0.126
50 µM
  probe-labelled cysteine peptide fold change: 0.269

## KATNB1_Q9BVA0_43_LLATGGDDCR (UniProt Q9BVA0)
10 µM
  probe-labelled cysteine peptide fold change: 0.0377
50 µM
  probe-labelled cysteine peptide fold change: -0.00712

## KDM5C_P41229_825_NCLSEAEACVSR (UniProt P41229)
10 µM
  probe-labelled cysteine peptide fold change: 0.00425
50 µM
  probe-labelled cysteine peptide fold change: -0.074

## KDM2B_Q8NHM5_699_FNLMLMECSICNEIIHPGCLK (UniProt Q8NHM5)
10 µM
  probe-labelled cysteine peptide fold change: 0.00171
50 µM
  probe-labelled cysteine peptide fold change: 0.0507

## KDM2B_Q8NHM5_770_SECEEAPR (UniProt Q8NHM5)
10 µM
  probe-labelled cysteine peptide fold change: 0.188
50 µM
  probe-labelled cysteine peptide fold change: 0.147

## KARS_Q15046_456+463_LVGEFLEVTCINPTFICDHPQIMSPLAK (UniProt Q15046)
10 µM
  probe-labelled cysteine peptide fold change: 0.0994
50 µM
  probe-labelled cysteine peptide fold change: -0.0295

## KDM4A_O75164_847_TAGCCVQCSHGR (UniProt O75164)
10 µM
  probe-labelled cysteine peptide fold change: -0.101
50 µM
  probe-labelled cysteine peptide fold change: -0.0403

## ITPRID2_P28290_878_TLSTHSVPNISGATCSAFASPFGCPYSHR (UniProt P28290)
10 µM
  probe-labelled cysteine peptide fold change: -0.282
50 µM
  probe-labelled cysteine peptide fold change: -0.488

## KAT5_Q92993_317_SYSQNLCLLAK (UniProt Q92993)
10 µM
  probe-labelled cysteine peptide fold change: 0.183
50 µM
  probe-labelled cysteine peptide fold change: 0.0984

## KDM4A_O75164_560_VTVGEPCTR (UniProt O75164)
10 µM
  probe-labelled cysteine peptide fold change: -0.0449
50 µM
  probe-labelled cysteine peptide fold change: -0.228

## KIF15_Q9NS87_1335_QVECLAEENGK (UniProt Q9NS87)
10 µM
  probe-labelled cysteine peptide fold change: -0.0868
50 µM
  probe-labelled cysteine peptide fold change: -0.0677

## JAK1_P23458_731_EGIDSECGPFIK (UniProt P23458)
10 µM
  probe-labelled cysteine peptide fold change: -0.199
50 µM
  probe-labelled cysteine peptide fold change: -0.268

## JMJD1C_Q15652_1871_CGFVVCLDCYK (UniProt Q15652)
10 µM
  probe-labelled cysteine peptide fold change: 0.149
50 µM
  probe-labelled cysteine peptide fold change: 0.209

## KDM3B_Q7LBC6_999_YILANVGDQFCQLVMSEK (UniProt Q7LBC6)
10 µM
  probe-labelled cysteine peptide fold change: 0.0529
50 µM
  probe-labelled cysteine peptide fold change: 0.0575

## KEAP1_Q14145_489_LNSAECYYPER (UniProt Q14145)
10 µM
  probe-labelled cysteine peptide fold change: 0.272
50 µM
  probe-labelled cysteine peptide fold change: 0.365

## KHNYN_O15037_245_ESLDTGSMGPGDCR (UniProt O15037)
10 µM
  probe-labelled cysteine peptide fold change: -0.26
50 µM
  probe-labelled cysteine peptide fold change: -0.469

## KATNB1_Q9BVA0_499_GHDTMCVVLTSR (UniProt Q9BVA0)
10 µM
  probe-labelled cysteine peptide fold change: 0.281
50 µM
  probe-labelled cysteine peptide fold change: 0.296

## KBTBD11_O94819_455_GAFAVAHEATTCHGEIYVSGGSLFYR (UniProt O94819)
10 µM
  probe-labelled cysteine peptide fold change: -0.0464
50 µM
  probe-labelled cysteine peptide fold change: 0.164

## KDSR_Q06136_121_LGPVDMLVNCAGMAVSGK (UniProt Q06136)
10 µM
  probe-labelled cysteine peptide fold change: 0.149
50 µM
  probe-labelled cysteine peptide fold change: 0.0187

## KARS_Q15046_209_GELSIIPYEITLLSPCLHMLPHLHFGLK (UniProt Q15046)
10 µM
  probe-labelled cysteine peptide fold change: 0.089
50 µM
  probe-labelled cysteine peptide fold change: 0.146

## KAT7_O95251_418_IYCQNLCLLAK (UniProt O95251)
10 µM
  probe-labelled cysteine peptide fold change: 0.0698
50 µM
  probe-labelled cysteine peptide fold change: 0.106

## KDM5B_Q9UGL1_1221_IWLCPHCR (UniProt Q9UGL1)
10 µM
  probe-labelled cysteine peptide fold change: -0.251
50 µM
  probe-labelled cysteine peptide fold change: -0.187

## ITPR2_Q14571_1415_VVTHDDCIPEVK (UniProt Q14571)
10 µM
  probe-labelled cysteine peptide fold change: -0.0184
50 µM
  probe-labelled cysteine peptide fold change: 0.158

## ITSN2_Q9NZM3_1414+1429_ENSDRLEWIQAHVQCEGLAEQLIFNSLTNCLGPR (UniProt Q9NZM3)
10 µM
  probe-labelled cysteine peptide fold change: -0.177
50 µM
  probe-labelled cysteine peptide fold change: 0.265

## IVNS1ABP_Q9Y6Y0_52_AVLACCSPYLFEIFNSDSDPHGISHVK (UniProt Q9Y6Y0)
10 µM
  probe-labelled cysteine peptide fold change: 0.318
50 µM
  probe-labelled cysteine peptide fold change: 0.0698

## ITSN2_Q9NZM3_1429_ENSDRLEWIQAHVQCEGLAEQLIFNSLTNCLGPR (UniProt Q9NZM3)
10 µM
  probe-labelled cysteine peptide fold change: -0.354
50 µM
  probe-labelled cysteine peptide fold change: 0.285

## KIF22_Q14807_575_AEDCWELQISPELLAHGR (UniProt Q14807)
10 µM
  probe-labelled cysteine peptide fold change: 0.244
50 µM
  probe-labelled cysteine peptide fold change: 0.25

## KBTBD11_O94819_257_DAAYCFMSDHYLEVLREPAVFGR (UniProt O94819)
10 µM
  probe-labelled cysteine peptide fold change: 0.122
50 µM
  probe-labelled cysteine peptide fold change: -0.103
